# From patent publication US20250387359A1, “COMPOUNDS AND METHODS FOR THE TREATMENT OF PARASITIC INFECTIONS” (THE BOARD OF TRUSTEES OF THE UNIVERSITY OF ILLINOIS, priority 2019, published 2025)
# Some results were stated once for a whole list of compounds, not compound by compound.
# Test system: C. parvum
# Assay: Histopathology of distal small intestine of C. parvum infected mice
# Type: in vivo, Cryptosporidium parvum
# Conditions: 4 microscopic fields per sample; NSC158011 400 mg/kg, NSC10447 250-1000 mg/kg, paromomycin 100 mg/kg
# Method: In vivo testing of the anti-Cryptosporidium effect of CpLDH inhibitors. Gamma interferon knockout mice (B6.129S7-Ifng), 8 weeks of age, were purchased from Charles River, USA. The care and use of the mice was done following the guidelines of protocol number 17024 approved by the University of Illinois at Urbana-Champaign, USA. The animals were allowed to acclimatize for 1 week before experiments commenced. Stock solutions of recombinant CpLDH inhibitors reconstituted in DMSO were diluted in sterile distilled water to reduce the final amount of DMSO in the solution to less than 1% (v/v) before administering them to mice. Prior to testing the anti-Cryptosporidium effect of the inhibitors in mice, the tolerability of each inhibitor was tested by oral gavage using varying dosages (100-2000 mg/kg body weight) of each inhibitor in groups of mice (three mice for each dose) daily for 7 days. Mice were observed daily for signs of toxicity including changes from normal physical activity, respiration, body temperature, feeding, posture, fur condition or occurrence of death. […] The subsequent dosages of NSC10447 used in the mice infection assays were 250, 500 and 1000 mg/kg mouse body weight, while the NSC158011 dosages used were 100, 200 and 400 mg/kg mouse body weight. Mice were allocated to groups as follows: “Infected plus inhibitor treatment”; “Infected minus inhibitor treatment”; “Uninfected minus inhibitor treatment” and “Infected plus paromomycin treatment”. Each group contained at least three mice. Each mouse in the infection groups received 5,000 C. parvum oocysts (resuspended in 50 μl of PBS) by oral gavage. Mice were housed individually in cages lined with sterile gauze as bedding. […] An equivalent volume of PBS containing a cocktail of penicillin (100 units/ml), streptomycin (100 μg/ml), chloramphenicol (34 μg/ml) and amphotericin (0.25 μg/ml) was added to the fecal samples and stored at 4° C. until use for quantification of C. parvum genomic DNA load. […]
row,Structure (SMILES),reduction of the percentage of denuded intestinal villi compared to infected untreated mice
1,O=C1c2ccccc2C(=O)c2c(O)c(O)cc(O)c21 [NSC10447],≥ 7 fold
2,S=C(CSc1ccccc1)Nc1cccc2ccccc12 [NSC158011],≥ 7 fold
3,"NC[C@@H]1O[C@H](O[C@H]2[C@@H](O)[C@H](O[C@@H]3[C@@H](O)[C@H](N)C[C@H](N)[C@H]3O[C@H]3O[C@H](CO)[C@@H](O)[C@H](O)[C@H]3N)O[C@@H]2CO)[C@H](N)[C@@H](O)[C@@H]1O [paromomycin, reference compound]",≥ 7 fold
